# Reference: US20250206725A1, “MODULATORS OF THR-BETA AND METHODS OF USE THEREOF” (Aligos Therapeutics, Inc., priority 2023, published 2025)
# Key:
# [1] = 10 μM, 37° C., 120 min
# [2] = similar to one another
parent remaining in rat hepatocytes [1] [%],metabolic stability in mouse liver microsomes [2],Structure (SMILES)
90,high metabolic stability,CC(C)c1cc(Oc2c(Cl)cc(-n3nc(N)c(=O)[nH]c3=O)cc2Cl)n[nH]c1=O [Compound A]
95,high metabolic stability,"[2H]C([2H])([2H])C([2H])(c1cc(Oc2c(Cl)cc(-n3nc(N)c(=O)[nH]c3=O)cc2Cl)n[nH]c1=O)C([2H])([2H])[2H] [Compound 1, 6-amino-2-(3,5-dichloro-4-((6-oxo-5-(propan-2-yl-d7)-1,6-dihydropyridazin-3-yl)oxy)phenyl)-1,2,4-triazine-3,5-(2H, 4H)-dione]"
